The values that follow come from paper PMC6620385.

Amino acid sequences for entries named in this document (tags omitted).
UniProt P56915: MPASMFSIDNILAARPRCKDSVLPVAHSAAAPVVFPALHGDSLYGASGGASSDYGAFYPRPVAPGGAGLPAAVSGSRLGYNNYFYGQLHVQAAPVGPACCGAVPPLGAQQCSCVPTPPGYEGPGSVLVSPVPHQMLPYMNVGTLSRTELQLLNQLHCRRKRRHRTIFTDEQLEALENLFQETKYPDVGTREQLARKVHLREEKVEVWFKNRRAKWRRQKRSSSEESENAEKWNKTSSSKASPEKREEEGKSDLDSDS

Results are given in words; binding and its absence hold for the method and conditions named. Binding seen in cells or lysates may run through a third protein. Some entries that bind do so weakly or less than the wild type. Sequences can lack the tags named with a protein.

In this assay the target is T1, Myc-tagged ubiquitin carboxyl-terminal hydrolase 21 (Myc-USP21) (human (cDNA from HEK 293T cells)) (UniProt Q9UK80).
T1 sequence: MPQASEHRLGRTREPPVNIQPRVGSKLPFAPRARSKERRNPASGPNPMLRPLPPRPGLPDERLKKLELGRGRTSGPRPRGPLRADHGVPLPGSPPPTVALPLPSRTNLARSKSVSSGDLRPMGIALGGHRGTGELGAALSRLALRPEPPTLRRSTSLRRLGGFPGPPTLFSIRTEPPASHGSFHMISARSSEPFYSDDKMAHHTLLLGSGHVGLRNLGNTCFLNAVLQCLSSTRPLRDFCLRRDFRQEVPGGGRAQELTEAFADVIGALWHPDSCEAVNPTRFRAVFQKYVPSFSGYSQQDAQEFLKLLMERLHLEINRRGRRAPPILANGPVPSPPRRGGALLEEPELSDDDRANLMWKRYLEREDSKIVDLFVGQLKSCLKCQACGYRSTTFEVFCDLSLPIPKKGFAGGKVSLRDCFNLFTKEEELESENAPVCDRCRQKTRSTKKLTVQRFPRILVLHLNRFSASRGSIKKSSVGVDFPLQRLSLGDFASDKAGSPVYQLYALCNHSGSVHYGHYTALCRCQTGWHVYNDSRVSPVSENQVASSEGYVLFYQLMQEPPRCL
The assay can be described thus: co-IP; HEK 293T cells co-transfected with Flag-GSC and Myc-USP21; lysed after 48 h in HEPES lysis buffer (20 mM HEPES pH 7.2, 50 mM NaCl, 1 mM NaF, 0.5% Triton X-100); anti-Myc (and anti-Flag) immunoprecipitation at 4°C, Western blot. (In general: A western blot detects proteins with antibodies after separation by electrophoresis.)

For “Flag epitope-tagged Goosecoid (Flag-GSC) (from UniProt P56915 1-257)”, the binding entry is “binds”.
